{"source": "PubChem BioAssay AID504786 (Drosophila RNAi Screening Center, 2011)", "screen": "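Fly genes required for HIF-dependent transcription when hypoxia is mimicked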 (primary screen)", "cell system": "Drosophila S2 cells with a stable HIF luciferase reporter", "reagent": "long dsRNA against Drosophila genes, about 0.2 µg dsRNA per well of a 384-well plate", "timing": "three days of knock-down, then 20 h of DFO before reading", "conditions": "desferrioxamine (DFO) at 100 µM, an iron chelator that mimics hypoxia, for 20 h", "read-out": "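HIF reporter luminescence in cells given 100 µM DFO for 20 h, using the mouse ldh-a hypoxia-response element, scored as per-plate z-scores; higher means greater loss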", "scale": "z-score: higher = stronger loss of HIF reporter signal", "note": "In all, the deposit lists about 21,000 reagents; below is a random part of those with a known target gene and a result. 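Primary screen; positive scores mean lost reporter signal, so the sign may be inverted from the usual convention.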 A plus sign joins genes that one reagent is predicted to hit. Further read-outs or replicates are left out here. No sequences are given here."}
{"Target gene": "Art4", "dsRNA": "DRSC15779", "z-score, replicate 1": -0.2}
{"Target gene": "Mst84Dc", "dsRNA": "DRSC12599", "z-score, replicate 1": -0.2}
{"Target gene": "Tig", "dsRNA": "DRSC03456", "z-score, replicate 1": -0.1}
{"Target gene": "XRCC1", "dsRNA": "DRSC18729", "z-score, replicate 1": -0.3}
{"Target gene": "CG9222", "dsRNA": "DRSC03158", "z-score, replicate 1": -0.2}
{"Target gene": "sqz", "dsRNA": "DRSC16980", "z-score, replicate 1": -0.8}
{"Target gene": "CG30480", "dsRNA": "DRSC06736", "z-score, replicate 1": -0.3}
{"Target gene": "Hou", "dsRNA": "DRSC20001", "z-score, replicate 1": -0.3}
{"Target gene": "fne", "dsRNA": "DRSC20332", "z-score, replicate 1": 1.2}
{"Target gene": "CG7691", "dsRNA": "DRSC16287", "z-score, replicate 1": -1.1}
{"Target gene": "Cyp6a9", "dsRNA": "DRSC07385", "z-score, replicate 1": -0.4}
{"Target gene": "Grip128", "dsRNA": "DRSC20167", "z-score, replicate 1": -0.2}
{"Target gene": "Cdc23", "dsRNA": "DRSC02708", "z-score, replicate 1": 0.3}

3 successive entries from above, quoted:
{"Target gene": "CG7691", "dsRNA": "DRSC16287", "z-score, replicate 1": -1.1}
{"Target gene": "Cyp6a9", "dsRNA": "DRSC07385", "z-score, replicate 1": -0.4}
{"Target gene": "Grip128", "dsRNA": "DRSC20167", "z-score, replicate 1": -0.2}

The listing continues:
{"Target gene": "CG42374 + Mettl5", "dsRNA": "DRSC11085", "z-score, replicate 1": -0.3}
{"Target gene": "p53", "dsRNA": "DRSC17024", "z-score, replicate 1": -0.2}
{"Target gene": "ytr", "dsRNA": "DRSC04306", "z-score, replicate 1": -0.3}
{"Target gene": "Scamp", "dsRNA": "DRSC20286", "z-score, replicate 1": -0.2}
{"Target gene": "sut1", "dsRNA": "DRSC07700", "z-score, replicate 1": -0.3}
{"Target gene": "spdo", "dsRNA": "DRSC13988", "z-score, replicate 1": -0.6}
{"Target gene": "ich", "dsRNA": "DRSC12715", "z-score, replicate 1": -0.4}
{"Target gene": "ich", "dsRNA": "DRSC14448", "z-score, replicate 1": -0.1}
{"Target gene": "CG14011", "dsRNA": "DRSC02343", "z-score, replicate 1": -0.3}
{"Target gene": "beat-IIb", "dsRNA": "DRSC13219", "z-score, replicate 1": -0.2}
{"Target gene": "beat-IIb", "dsRNA": "DRSC14816", "z-score, replicate 1": -0.4}
{"Target gene": "beat-IIb", "dsRNA": "DRSC15546", "z-score, replicate 1": -0.1}
{"Target gene": "h-cup", "dsRNA": "DRSC15973", "z-score, replicate 1": -0.1}
{"Target gene": "Gapdh2", "dsRNA": "DRSC20246", "z-score, replicate 1": -0.6}
{"Target gene": "CG12078", "dsRNA": "DRSC08242", "z-score, replicate 1": -0.2}
{"Target gene": "Ugt36E1", "dsRNA": "DRSC02599", "z-score, replicate 1": -0.3}
{"Target gene": "obst-B", "dsRNA": "DRSC01987", "z-score, replicate 1": -0.2}
{"Target gene": "fan", "dsRNA": "DRSC10930", "z-score, replicate 1": -0.3}
{"Target gene": "Ugt35E1", "dsRNA": "DRSC15193", "z-score, replicate 1": -0.4}
{"Target gene": "CG6429", "dsRNA": "DRSC06986", "z-score, replicate 1": -0.3}
{"Target gene": "SCCRO3", "dsRNA": "DRSC06359", "z-score, replicate 1": -0.3}
{"Target gene": "Ktch", "dsRNA": "DRSC15094", "z-score, replicate 1": -0.4}
{"Target gene": "miple1", "dsRNA": "DRSC08722", "z-score, replicate 1": -0.4}
{"Target gene": "ais", "dsRNA": "DRSC10523", "z-score, replicate 1": -0.2}
{"Target gene": "Ca-alpha1T", "dsRNA": "DRSC17842", "z-score, replicate 1": -0.1}
{"Target gene": "Ca-alpha1T", "dsRNA": "DRSC18103", "z-score, replicate 1": -0.3}
{"Target gene": "Ca-alpha1T", "dsRNA": "DRSC18356", "z-score, replicate 1": -0.2}
{"Target gene": "Ca-alpha1T", "dsRNA": "DRSC18357", "z-score, replicate 1": -0.3}
